# Measurements: the supplement of paper PMC8975748
# Where a name gives a salt, the structure may show the parent alone. ± gives the standard deviation of the averaged measurements. The list shows a part of the results. These are raw signals, not scaled to a control.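 A single yeast strain with four plasmids, each encoding a fluorescent protein and an amino-acid or uracil biosynthesis gene, seeds the community. Stochastic plasmid loss yields mixed prototroph and auxotroph subpopulations. Fixed cells were counted via automated confocal fluorescence imaging; DMSO-treated wells were the vehicle reference.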
# Test system: Saccharomyces cerevisiae BY4741 SeMeCo community
# Test: imaged cell count per well (cells); higher = more cells
# Conditions: 10 µM; 24 h; SM minimal medium
# Protocol: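 Same SeMeCo high-content imaging drug screen: Selleck FDA-approved drugs at 10 µM, 24 h in SM medium, 384-well plates, 3 replicates.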
row,SMILES,imaged cell count per well
1,CN1CCN(c2c(F)cc3c(=O)c(C(=O)O)cn4c3c2OCN4C)CC1 [Marbofloxacin],31200 ± 5700
2,CC1(C)S[C@@H]2[C@H](NC(=O)[C@H](N)c3ccccc3)C(=O)N2[C@H]1C(=O)O [Ampicillin sodium],27400 ± 4000
3,CCC(=O)O[C@@H]1CC(=O)O[C@H](C)C/C=C/C=C/[C@H](O)[C@H](C)C[C@H](CC=O)[C@H](O[C@@H]2O[C@H](C)[C@@H](O[C@H]3C[C@@](C)(O)[C@@H](OC(=O)CC)[C@H](C)O3)[C@H](N(C)C)[C@H]2O)[C@H]1OC [Midecamycin],27200 ± 2500
4,CC[C@@H](CO)NCCN[C@@H](CC)CO [Ethambutol 2HCl],22100 ± 2700
5,Clc1ccc(COC(Cn2ccnc2)c2ccc(Cl)cc2Cl)cc1 (configuration not stated) [Econazole],3530 ± 430
6,COCCOC(=O)C1=C(C)NC(C)=C(C(=O)OC(C)C)C1c1cccc([N+](=O)[O-])c1 (configuration not stated) [Nimodipine],26800 ± 4200
7,N[C@@H]1CN(c2c(F)cc3c(=O)c(C(=O)O)cn([C@@H]4C[C@@H]4F)c3c2Cl)CC12CC2 [Sitafloxacin Hydrate],28200 ± 2400
8,CNCCCC1c2ccccc2C=Cc2ccccc21 [Protriptyline hydrochloride],22900 ± 4500
9,O=C(Cn1ccnc1[N+](=O)[O-])NCc1ccccc1 [Benznidazole],23300 ± 2900
10,CCC1(C)CC(=O)NC1=O (configuration not stated) [Ethosuximide],18500 ± 10000
11,C1N2CN3CN1CN(C2)C3 [Methenamine],27200 ± 3800
12,CC[C@H]1OC(=O)[C@H](C)[C@@H](O[C@H]2C[C@@](C)(OC)[C@@H](O)[C@H](C)O2)[C@H](C)[C@@H](O[C@@H]2O[C@H](C)C[C@H](N(C)C)[C@H]2O)[C@](C)(O)C[C@@H](C)CN(C)[C@H](C)[C@@H](O)[C@]1(C)O [Azithromycin],21800 ± 980

# No new results follow: 2 of the compounds above.
row,SMILES,imaged cell count per well
7,N[C@@H]1CN(c2c(F)cc3c(=O)c(C(=O)O)cn([C@@H]4C[C@@H]4F)c3c2Cl)CC12CC2 [Sitafloxacin Hydrate],28200 ± 2400
8,CNCCCC1c2ccccc2C=Cc2ccccc21 [Protriptyline hydrochloride],22900 ± 4500
